These are yes or no findings as the source states them, for the method shown. Some binding calls cover weakened binding; strength is not graded here.
B1: MED29 (natural protein, mouse (Mus musculus; endogenous in CH12), UniProt Q9DB91 1-199, looked up)
chain: MAAPQPQAAAVSSASGVSGPGSAGGPGPQQQPQPTQLVGSAQSGLLQQQQQDFDPVQRYKMLIPQLKESLQTLMKVAAQNLIQNTNIDNGQKSSDAPLQRFDKCLEEFYALCDQLELCLRLAHECLSQSCDSAKHSPTLVPTATKPDAVQPDSLPYPQYLAVIKAQITCAKDIHTALLDCANKVTGKTTAPSTGPGGSL
notes: MED29, Mus musculus, endogenous upper Tail subunit of Mediator; source: endogenous, CH12 mouse B lymphoma nuclear extract; immunopurified as part of Mediator (FLAG M2 agarose, FLAG peptide elution)
B2: MED17 (natural protein, mouse (Mus musculus; endogenous in CH12), UniProt Q8VCD5 1-649, looked up)
chain: MSGVRAVRISIESACEKQVQEVGLDGTETYLQPLSMSQNLARLAQRIDFSQGSGSEEEEAAGPDGDAPDWGGAGADQDDEEGLVKFQPSLWPWDSVRNNLRSALTEMCVLYDVLSIVRDKKFMTLDPVSQDALPPKQSPQTLQLISKKKSLAGAAQILLKGAERLTKSVAENQENKLQRDFNSELLRLRQHWKLRKVGDKILGDLSYRSAGSLFPHHGTFEVIKNTDIDLDKKIPEDYCPLDVQIPSDLEGSAYIKVSIQKQAPDIGDLGTVNLFKRPLPKSKPGSPHWQTKLEAAQNVLLCKEIFAQLSREAVQIKSQIPHIVVKNQIISQPFPSLQLSISLCHSSDDKKSQKCAAEKPGQEDHLYVLEHNLHLLIREFHKQTLSSIVMPHPASAPFGHKRMRLSGPQAFDKNEINSIQSTEGLLEKIIKQAKHIFLRSRTAATIDSLASRIEDPQIQAHWSNINDVYESSVKVLITSQGYEQICKSIQLQLNIGVEQVRVVHRDGRVIMLSHQEQELQDFLLSQMSQHQVHAVQQLAKVMGWQVLSFSNHVGLGPIESIGNASAITVASPSGDYAISVRNGPESGSKIMVQFPRNQCKDLPKSDVLQDSKWSHLRGPFKEVQWNKMEGRNFVYKMELLMSALSPCLL
notes: MED17, Mus musculus, endogenous Head module scaffold subunit of Mediator; source: endogenous, CH12 mouse B lymphoma nuclear extract; immunopurified as part of Mediator (FLAG M2 agarose, FLAG peptide elution)
B3: MED27 (natural protein, mouse (Mus musculus; endogenous in CH12), UniProt Q9DB40 1-311, looked up)
chain: MADVLSVGVNLEAFSQAISAIQALRSSVSRVFDCLKDGMRNKETLEGREKAFIANFQDNLHSVNRDLNELERLSNLVGKPSENHPLHNSGLLSLDPVQDKTPLYSQLLQAYKWSNKLQYHAGLASGLLNQQSLKRSANQMGVSAKRRPKAQPTTLVLPPQYVDDVISRIDRMFPEMSIHLSRPNGTSAMLLVTLGKVLKVIVVMRSLFIDRTIVKGYNESVYTEDGKLDIWSKSSYQVFQKVTDHATTALLHYQLPQMPDVVVRSFMTWLRSYIKLFQAPCQRCGKFLQDGLPPTWRDFRTLEAFHDTCRQ
notes: MED27, Mus musculus, endogenous upper Tail subunit of Mediator; source: endogenous, CH12 mouse B lymphoma nuclear extract; immunopurified as part of Mediator (FLAG M2 agarose, FLAG peptide elution)

By UniProt entry, the sequences of proteins in these tests, tags left out.
UniProt A2ABV5: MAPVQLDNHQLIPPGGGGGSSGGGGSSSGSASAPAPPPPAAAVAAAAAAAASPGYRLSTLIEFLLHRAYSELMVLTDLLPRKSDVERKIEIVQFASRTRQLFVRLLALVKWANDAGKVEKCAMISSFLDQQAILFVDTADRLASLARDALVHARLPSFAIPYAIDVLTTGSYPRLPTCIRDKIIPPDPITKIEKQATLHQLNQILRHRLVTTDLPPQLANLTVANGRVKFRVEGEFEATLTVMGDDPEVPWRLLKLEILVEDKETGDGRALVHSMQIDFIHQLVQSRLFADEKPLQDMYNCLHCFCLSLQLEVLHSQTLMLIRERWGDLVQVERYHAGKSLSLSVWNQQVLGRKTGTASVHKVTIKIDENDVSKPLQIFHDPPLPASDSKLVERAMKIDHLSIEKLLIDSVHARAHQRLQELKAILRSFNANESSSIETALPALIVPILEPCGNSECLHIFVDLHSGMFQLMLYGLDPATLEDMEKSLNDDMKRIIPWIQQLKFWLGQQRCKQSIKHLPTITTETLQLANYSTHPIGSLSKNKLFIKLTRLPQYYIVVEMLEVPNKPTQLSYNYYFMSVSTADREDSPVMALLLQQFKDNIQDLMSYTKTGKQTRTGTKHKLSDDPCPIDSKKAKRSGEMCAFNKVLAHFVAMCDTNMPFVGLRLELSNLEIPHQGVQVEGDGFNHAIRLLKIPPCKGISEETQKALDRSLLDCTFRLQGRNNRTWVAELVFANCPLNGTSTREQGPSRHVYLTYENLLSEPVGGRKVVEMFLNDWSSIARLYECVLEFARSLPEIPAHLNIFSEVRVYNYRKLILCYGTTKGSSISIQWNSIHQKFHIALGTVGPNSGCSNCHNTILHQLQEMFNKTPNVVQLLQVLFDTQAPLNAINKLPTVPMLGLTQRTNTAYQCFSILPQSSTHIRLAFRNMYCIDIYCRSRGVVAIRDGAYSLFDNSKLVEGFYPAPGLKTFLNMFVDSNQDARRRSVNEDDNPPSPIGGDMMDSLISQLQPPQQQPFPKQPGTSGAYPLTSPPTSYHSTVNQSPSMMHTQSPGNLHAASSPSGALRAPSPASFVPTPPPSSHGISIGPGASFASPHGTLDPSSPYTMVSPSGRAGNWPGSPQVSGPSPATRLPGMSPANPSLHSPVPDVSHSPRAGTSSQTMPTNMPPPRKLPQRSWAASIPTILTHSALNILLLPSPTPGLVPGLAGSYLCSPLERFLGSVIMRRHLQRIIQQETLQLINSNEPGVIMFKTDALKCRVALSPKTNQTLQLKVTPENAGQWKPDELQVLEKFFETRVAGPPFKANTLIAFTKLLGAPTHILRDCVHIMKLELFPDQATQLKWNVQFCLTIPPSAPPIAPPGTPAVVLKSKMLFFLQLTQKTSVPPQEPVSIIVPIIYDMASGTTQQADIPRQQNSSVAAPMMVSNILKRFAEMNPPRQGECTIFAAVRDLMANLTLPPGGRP

biological target: MED14 (mouse (Mus musculus; endogenous in CH12)) (UniProt A2ABV5); experiment: cryo-EM structure; endogenous mouse Mediator immunopurified from CH12 nuclear extract through 3×FLAG-MED19 or 3×FLAG-MED25; eluted in 50 mM HEPES pH 7.9, 100 mM KCl, 5% glycerol, 1 mM EDTA, 0.005% NP-40; map at 4.0 Å overall, focused refinement of the MED1 and knob/hook ends (6-10 Å); both purified

binding | Binder
binds | B1
binds | B2
binds | B3

Reference: paper PMC7921410, “Structure of mammalian Mediator complex reveals Tail module architecture and interaction with a conserved core” (Nature Communications, 2021)
